Results are given in words; binding and its absence hold for the method and conditions named. Binding seen in cells or lysates may run through a third protein. Some results given as binding are weak or reduced against the parent protein; the word gives no strength. For some of these results: Sequences can lack the tags named with a protein.
Legend:
[1] = molecular target: FKF1 (FLAVIN-BINDING, KELCH REPEAT, F-BOX 1), wild type, transiently overexpressed in Nicotiana benthamiana (Arabidopsis thaliana) (UniProt Q9C9W9); test: co-IP; proteins transiently co-expressed in Nicotiana benthamiana leaves (3 days under LDs); TAP-tagged protein immunoprecipitated with anti-Protein A antibody, HA-tagged protein detected with anti-HA
[2] = molecular target: ZEITLUPE (ZTL), TAP-tagged, transiently overexpressed in Nicotiana benthamiana (Arabidopsis thaliana) (UniProt Q94BT6); test: as above
[3] = molecular target: CONSTANS (CO), TAP-tagged, transiently overexpressed in Nicotiana benthamiana (Arabidopsis thaliana) (UniProt Q39057); test: as above
[4] = molecular target: T1, GIGANTEA (GI), TAP-tagged, expressed from the GI promoter in transgenic Arabidopsis (Arabidopsis thaliana) (UniProt Q9SQI2); test: co-IP; 10-day-old transgenic Arabidopsis seedlings under LDs, harvested at ZT12; GI-TAP immunoprecipitated with anti-Protein A antibody, HA-FKF1 detected with anti-HA; also under white, red or blue light (Supplementary Fig. S3)
T1 sequence: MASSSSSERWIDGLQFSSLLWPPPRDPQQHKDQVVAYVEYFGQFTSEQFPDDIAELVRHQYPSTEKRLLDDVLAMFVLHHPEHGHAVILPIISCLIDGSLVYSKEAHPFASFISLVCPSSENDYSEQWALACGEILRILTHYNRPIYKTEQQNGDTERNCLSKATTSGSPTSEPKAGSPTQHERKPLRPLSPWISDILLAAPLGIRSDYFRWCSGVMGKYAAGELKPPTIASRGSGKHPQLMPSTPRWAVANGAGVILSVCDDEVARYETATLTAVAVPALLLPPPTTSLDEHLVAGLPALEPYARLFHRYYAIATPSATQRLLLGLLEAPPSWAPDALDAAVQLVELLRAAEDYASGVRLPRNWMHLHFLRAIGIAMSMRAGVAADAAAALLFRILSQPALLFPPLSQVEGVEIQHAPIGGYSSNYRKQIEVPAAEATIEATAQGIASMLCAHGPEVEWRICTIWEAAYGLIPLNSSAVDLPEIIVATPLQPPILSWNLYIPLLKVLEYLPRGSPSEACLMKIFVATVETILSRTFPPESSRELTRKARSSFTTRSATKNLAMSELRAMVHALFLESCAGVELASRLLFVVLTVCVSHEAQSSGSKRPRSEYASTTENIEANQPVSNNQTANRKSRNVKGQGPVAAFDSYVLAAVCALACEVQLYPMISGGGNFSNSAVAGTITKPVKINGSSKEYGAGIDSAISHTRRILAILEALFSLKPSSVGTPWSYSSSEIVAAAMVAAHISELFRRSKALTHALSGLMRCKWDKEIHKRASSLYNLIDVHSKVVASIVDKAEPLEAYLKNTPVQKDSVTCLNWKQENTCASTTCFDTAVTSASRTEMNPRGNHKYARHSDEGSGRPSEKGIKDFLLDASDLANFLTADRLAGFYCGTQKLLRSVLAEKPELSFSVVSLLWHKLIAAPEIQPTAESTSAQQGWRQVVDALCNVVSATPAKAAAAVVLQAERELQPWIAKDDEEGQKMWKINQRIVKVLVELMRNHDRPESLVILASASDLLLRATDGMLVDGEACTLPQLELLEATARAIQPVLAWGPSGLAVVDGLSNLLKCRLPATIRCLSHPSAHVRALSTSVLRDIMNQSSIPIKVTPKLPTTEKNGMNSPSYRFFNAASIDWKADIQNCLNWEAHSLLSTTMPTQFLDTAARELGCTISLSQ

Protein sequences, listed by entry. Tags and fused reporters are not part of them.
UniProt Q9C9W9: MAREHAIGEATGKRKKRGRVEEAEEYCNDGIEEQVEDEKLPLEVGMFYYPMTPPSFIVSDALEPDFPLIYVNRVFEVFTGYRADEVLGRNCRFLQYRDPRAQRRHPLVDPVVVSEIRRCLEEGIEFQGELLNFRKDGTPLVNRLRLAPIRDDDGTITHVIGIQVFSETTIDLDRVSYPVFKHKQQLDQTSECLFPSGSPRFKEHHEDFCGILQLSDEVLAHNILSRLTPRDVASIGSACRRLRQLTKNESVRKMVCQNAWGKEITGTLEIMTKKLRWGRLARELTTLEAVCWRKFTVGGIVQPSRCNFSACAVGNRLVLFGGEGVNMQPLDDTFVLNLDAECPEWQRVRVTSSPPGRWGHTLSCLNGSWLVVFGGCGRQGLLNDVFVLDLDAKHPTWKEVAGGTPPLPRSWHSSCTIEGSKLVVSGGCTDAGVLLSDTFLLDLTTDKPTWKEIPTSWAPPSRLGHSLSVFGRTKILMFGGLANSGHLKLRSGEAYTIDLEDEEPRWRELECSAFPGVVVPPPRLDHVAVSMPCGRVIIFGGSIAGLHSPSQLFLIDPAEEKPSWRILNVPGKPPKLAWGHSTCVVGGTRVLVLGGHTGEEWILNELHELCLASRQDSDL
UniProt Q94BT6: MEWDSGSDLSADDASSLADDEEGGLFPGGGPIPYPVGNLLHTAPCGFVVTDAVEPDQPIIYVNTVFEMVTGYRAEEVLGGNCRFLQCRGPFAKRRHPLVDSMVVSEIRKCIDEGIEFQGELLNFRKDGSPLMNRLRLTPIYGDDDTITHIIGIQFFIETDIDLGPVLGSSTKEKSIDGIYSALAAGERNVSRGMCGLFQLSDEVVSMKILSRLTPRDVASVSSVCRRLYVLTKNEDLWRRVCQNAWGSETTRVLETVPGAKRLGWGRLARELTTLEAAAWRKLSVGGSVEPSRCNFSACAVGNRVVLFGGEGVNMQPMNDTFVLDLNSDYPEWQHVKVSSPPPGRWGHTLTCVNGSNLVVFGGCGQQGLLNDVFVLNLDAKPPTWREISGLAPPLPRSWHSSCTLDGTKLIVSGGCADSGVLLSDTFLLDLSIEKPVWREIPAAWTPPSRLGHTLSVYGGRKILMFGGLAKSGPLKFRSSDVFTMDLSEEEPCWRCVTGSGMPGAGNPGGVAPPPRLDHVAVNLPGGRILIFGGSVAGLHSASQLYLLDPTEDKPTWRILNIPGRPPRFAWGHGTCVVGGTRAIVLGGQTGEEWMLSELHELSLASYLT
UniProt Q39057: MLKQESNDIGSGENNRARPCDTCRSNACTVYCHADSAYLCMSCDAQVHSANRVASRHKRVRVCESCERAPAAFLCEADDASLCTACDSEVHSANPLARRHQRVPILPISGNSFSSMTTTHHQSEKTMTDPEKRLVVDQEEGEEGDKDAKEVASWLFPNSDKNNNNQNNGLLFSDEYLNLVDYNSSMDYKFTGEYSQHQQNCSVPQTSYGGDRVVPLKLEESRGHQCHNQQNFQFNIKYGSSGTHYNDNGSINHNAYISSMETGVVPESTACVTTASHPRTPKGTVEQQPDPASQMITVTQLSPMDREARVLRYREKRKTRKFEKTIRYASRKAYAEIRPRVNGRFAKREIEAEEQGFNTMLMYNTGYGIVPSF

Row | binding [1] | binding [2] | binding [3] | binding [4] | Substance
1 | binds | binds | binds |  | FKF1 (FLAVIN-BINDING, KELCH REPEAT, F-BOX 1), wild type, transiently overexpressed in Nicotiana benthamiana (from UniProt Q9C9W9 1-619)
2 |  |  |  | binds | HA-FKF1, wild type, expressed from the FKF1 promoter in transgenic Arabidopsis (from UniProt Q9C9W9 1-619)

From article PMC11026275
